Experimental data from patent US10100366B2, “Methods of detecting cancers sensitive to cabozantinib” (Oregon Health & Science University, priority 2015, dated 2018).
At least one structure is not confirmed: it was looked up by name or label, or the drawing left a doubt.

By UniProt entry, the sequences of proteins in these tests, tags left out. Residues count along the entry.
UniProt P08922, 1883-2347 D2033N limits assumed: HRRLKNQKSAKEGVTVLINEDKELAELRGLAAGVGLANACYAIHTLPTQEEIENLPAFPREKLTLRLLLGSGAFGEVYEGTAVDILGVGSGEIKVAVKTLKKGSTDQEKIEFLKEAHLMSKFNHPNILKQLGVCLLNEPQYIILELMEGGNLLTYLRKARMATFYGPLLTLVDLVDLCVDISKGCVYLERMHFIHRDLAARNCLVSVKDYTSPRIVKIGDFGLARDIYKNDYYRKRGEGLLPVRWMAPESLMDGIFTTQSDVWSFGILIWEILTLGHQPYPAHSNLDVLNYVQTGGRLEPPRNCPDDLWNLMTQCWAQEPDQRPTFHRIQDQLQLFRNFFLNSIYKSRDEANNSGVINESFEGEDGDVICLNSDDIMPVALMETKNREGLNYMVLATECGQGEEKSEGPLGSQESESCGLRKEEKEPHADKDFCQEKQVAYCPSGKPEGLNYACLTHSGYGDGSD

Tests used:
[1] = molecular target: T1, Ba/F3 cells expressing CD74-ROS1 D2033N (Homo sapiens, UniProt P08922, D2033N); experiment: Cell growth/viability assay (MTS), Ba/F3 CD74-ROS1 D2033N; type: cell-based; settings: 72 h, ratio of IC50
T1 construct: CD74 (fusion partner, N-terminal part of CD74); expressed in transfected cells; host or cells: Ba/F3 (murine pro-B), retroviral transduction, IL-3 withdrawn; the other entry of the earlier key: CD74 (P04233, HLA class II histocompatibility antigen gamma chain)
Method: CD74-ROS1D2033N was generated using site-directed mutagenesis by following manufacturer's protocol (Agilent). Ba/F3 cells were maintained at densities of 0.5-1.5×10^6 cells/mL and infected with retrovirus encoding native or mutant versions of human CD74-ROS1. GFP-based selection of transduced cells was performed with a FACSAria cell sorter (BD Biosciences). Stable cell lines were washed with complete medium to remove IL-3. Cells that grew out after IL-3 withdrawal were maintained in complete medium and used for in vitro assays.
Inhibitors were prepared as 1 mM stocks in DMSO prior to each experiment. […] Ba/F3 cells expressing CD74-ROS1 constructs were seeded (800 cells/well; 25 μL) into drug plates using a Multidrop Combi Reagent Dispenser (Thermo Scientific), and plates were incubated for 72 h at 37° C., 5% CO2. Viability was measured using a methanethiosulfonate (MTS)-based assay (CellTiter96 Aqueous One Solution; Promega) read on a Biotek Synergy 2 plate reader. Proliferation experiments were performed three independent times in triplicate.

[2] = system: Ba/F3 CD74-ROS1 D2033N cells; experiment: Apoptosis measurement (Annexin V, Guava Nexin); type: cell-based, human; settings: 72 h
[3] = system: Ba/F3 CD74-ROS1 cells; experiment: Immunoblot analysis of ROS1 and downstream effector phosphorylation, native CD74-ROS1 cells; type: cell-based, human; settings: 2 h treatment
Method: Ba/F3 CD74-ROS1 and CD74-ROS1D2033N […] cells were treated with the indicated concentrations of inhibitors for 2 h, pelleted, washed once in ice-cold PBS, and lysed in 200 μL of cell lysis buffer (Cell Signaling Technology) that was supplemented with 0.25% deoxycholate, 0.05% SDS, and protease and phosphatase inhibitors. Equal amounts of protein were extracted with SDS sample buffer for 15 min at 80° C. and resolved on 4-15% Tris-glycine or 4-12% Bis-Tris precast gels (Criterion; Bio-Rad). Proteins transferred to Immobilon-FL membranes (Millipore) were probed with: phospho-ROS1 [Cell Signaling Technology (CST); 3078, 1:1000], total ROS1 (CST; 3266, 1:1000), phospho-ERK1/2 (CST; 9101, 1:1000), total ERK2 (Santa Cruz; sc-1647, 1:2000), phospho-AKT (CST; 4060, 1:1000), AKT (BD Transduction Laboratories; 610860, 1:1000), pSHP2 (CST; 3703), pSTAT3 (CST, 9131), and GAPDH (Ambion; AM4300, 1:5000). Blots were imaged using either a LI-COR Odyssey imaging system or the Bio-Rad ChemiDoc imaging station according to the manufacturer's protocol for immunoblot detection with use of Infrared dye or horseradish peroxidase-conjugated secondary antibodies, respectively.

[4] = system: Ba/F3 CD74-ROS1D2033N cells; experiment: Immunoblot analysis of ROS1 and downstream effector phosphorylation, CD74-ROS1D2033N cells; type: cell-based, human; settings: 2 h treatment
[5] = system: CD74-ROS1-rearranged lung adenocarcinoma with acquired CD74-ROS1 D2033N mutation; experiment: Patient case: cabozantinib after acquired crizotinib resistance (phase II trial NCT01639508), RECIST v1.1; type: in vivo, human; settings: one patient, 60 mg daily
Method: The patient received cabozantinib at a dose of 60 mg daily in 28-day cycles as part of an ongoing phase II clinical trial (NCT01639508) with an arm for ROS1-rearranged lung cancers. Inclusion criteria for patients in this trial were as follows: pathologic or cytologic evidence of non-small-cell lung cancer (NSCLC), clinical stage IV or recurrent/medically inoperable disease, a Karnofsky performance status of more than 70%, a life expectancy of more than 12 weeks, adequate hematologic, renal, and hepatic function, and measurable disease. Informed consent was obtained after the nature and possible consequences of the studies were explained. Treatment was discontinued in the event of disease progression, unacceptable toxicity, or patient withdrawal. Dose reductions were permitted as per a prescribed algorithm. Response was assessed using the Response Evaluation Criteria in Solid Tumors (RECIST) version 1.1 (Eisenhauer E A et al, Eur J Cancer 45, 228-247 (2009); incorporated by reference herein). Imaging was performed at baseline, 4 weeks, and every 8 weeks thereafter. In addition, scans to confirm response were performed as per RECIST. […]
Of 644 sequencing reads over that specific region of ROS1 that were at […] depth, the variant frequency of c.6097G>A was 14% in the crizotinib-resistant tumor specimen and undetectable the matched normal peripheral blood control. […]

Compound	fold decrease in sensitivity, CD74-ROS1D2033N compared to native CD74-ROS1 [1]	apoptosis induction [2]	inhibition of phosphorylation of ROS1 and downstream effectors SHP2, ERK1/2, AKT and STAT3 [3]	suppression of ROS1 activation and downstream signaling [4]	clinical response (in words) ([5]; at 12 weeks)	clinical response (in words) ([5]; by 4 weeks, confirmed at 8 weeks, RECIST v1.1)
COc1cc(N2CCC(N3CCN(C)CC3)CC2)ccc1Nc1ncc(Cl)c(Nc2ccccc2P(C)(C)=O)n1 [brigatinib]	3.7 fold					
COc1cc2nccc(Oc3ccc(NC(=O)C4(C(=O)Nc5ccc(F)cc5)CC4)cc3)c2cc1OC [cabozantinib]		consistent with induction of apoptotic cell death	dose-dependent inhibition	suppressed ROS1 activation and downstream signaling	near complete response	partial response
